Experimental data as given in PubChem BioAssay AID540276 (National Center for Advancing Translational Sciences (NCATS), 2011).
In all, about 300,000 compounds went through this assay and about 5,400 (1.8%) were called active. This list was built around the results that the source calls inconclusive (neither active nor inactive); the mix of calls is not that of the screen. Calls follow the shape of the full dose curve; tested in HEK293 cells. Where the call is inconclusive, the potency comes from a doubtful curve fit.

experiment: qHTS for inhibitors of binding or entry into cells for Marburg Virus; conditions: Marburg virus pseudotyped entry inhibition, cell reporter; series mostly up to 37.8 µM
Potency is read from the fitted curve at half-maximal effect.

Row | Structure (SMILES) | Potency
1 | O=C(CCCc1nc2ccccc2s1)NNC(=O)CCN1CCN(Cc2ccccc2)CC1 | inactive
2 | COc1ccc(NC(NC(=O)c2cccnc2)C(Cl)(Cl)Cl)cc1 (stereo unspecified) | inconclusive: 25.1 µM [inhibitor, single point]
3 | COc1ccc(CCNC(=O)CSc2cn(Cc3cccc(C)c3)c3ccccc23)cc1OC | inconclusive: 10.3 µM [inhibitor, partial curve]
4 | Cc1c(Cl)cccc1NC(=S)NCc1ccc(Cl)cc1 | inconclusive: 22.4 µM [inhibitor, single point]
5 | Cc1ccc(Nc2c(-c3ccccn3)nc3cc(C)ccn23)cc1 | inconclusive: 29.1 µM [inhibitor, single point]
6 | COc1ccccc1NC(=O)C1=C(C)Nc2nc3ccccc3n2C1c1cccc(OC)c1OC (stereo unspecified) | inactive
7 | Oc1cccc(C=Nc2cccc3ccccc23)c1O | inconclusive: 28.2 µM [inhibitor, partial curve, poor fit]
8 | CN1CCN(c2ccc([N+](=O)[O-])c3no[n+]([O-])c23)CC1 | active: 0.562 µM
9 | O=C(NCC(c1ccco1)N1CCCC1)c1ccccc1Sc1ccc(C(F)(F)F)cc1[N+](=O)[O-] (stereo unspecified) | inconclusive: 35.5 µM [inhibitor, single point]
10 | CCN1CCCC1Cn1cnc2c([nH]c3ccc(C)cc32)c1=O (stereo unspecified) | inconclusive: 0.794 µM [inhibitor, single point]
11 | CCOC(=O)c1ccc(NS(=O)(=O)N2CCCCCC2)cc1 | inactive
12 | CCC1CCCCN1C(=O)CN1C(=O)c2ccccc2S1(=O)=O (stereo unspecified) | inactive
13 | CCCn1c(=O)n(N)c2ccccc21 | inconclusive: 35.5 µM [activator, single point]
14 | O=C(CSCc1ccccc1Br)N/N=C/c1ccc(OCC(=O)N2CCCCC2)cc1 | inconclusive: 5.62 µM [inhibitor, single point]
15 | CCOc1ccccc1OCCOc1ccccc1OC(C)C | inactive
16 | CC(=O)N1CCc2c(sc(NC(=O)C3COc4ccccc4O3)c2C(N)=O)C1 (stereo unspecified) | inactive
17 | CCCCn1c(N)c(N(CC(C)C)C(=O)COC(=O)Cc2cccc(OC)c2)c(=O)[nH]c1=O | inactive
18 | COc1ccc2sc3c(=O)[nH]c4ccccc4c3c2c1 | inactive
19 | FC(F)(F)c1ccc(NC(=S)NCc2ccccc2)cc1 | inconclusive: 17.8 µM [inhibitor, partial curve, poor fit]
20 | Cc1cc(-c2[nH]nc3c2C(c2ccsc2)C(C#N)=C(N)O3)c(C)s1 (stereo unspecified) | inconclusive: 35.5 µM [activator, single point]
21 | CC(C)(C)N(Cc1ccccc1)C(=O)CN1C(=O)c2ccccc2C1=O | inactive
22 | COc1cc(NC(=O)CSc2ccc(-c3ccccn3)nn2)cc(OC)c1 | inconclusive: 35.5 µM [inhibitor, single point]
23 | NC(=O)C1CCN(C(=O)c2cc3c(s2)CCCC3)CC1 | inconclusive: 6.31 µM [activator, partial curve]
24 | O=C(CSc1nc(-c2ccc(F)cc2)[nH]c1-c1ccc(F)cc1)Nc1ccc2c(c1)OCO2 | inconclusive: 10 µM [inhibitor, partial curve, poor fit]

Row | Structure (SMILES) | Potency
25 | CCC(c1nnnn1CCOC)N(Cc1cc2cc(C)c(C)cc2[nH]c1=O)CC1CCCO1 (stereo unspecified) | inconclusive: 2.59 µM [inhibitor, partial curve, poor fit]
26 | CCC(=O)N1CCN(c2ccccc2NC(=O)Cc2ccccc2)CC1 | inactive
27 | Nc1cnc(-c2ccccc2)nc1Cl | inconclusive: 5.62 µM [activator, single point]
28 | Cc1ccc(S(=O)(=O)N(C)CC(=O)OCC(=O)NC(=O)Nc2ccc3c(c2)OCCO3)cc1 | inconclusive: 35.5 µM [activator, partial curve, poor fit]
29 | COc1ccc(N2CCN(c3ncccn3)CC2)cc1 | inactive
30 | CCOC(=O)C1=C(c2ccccc2)NC(=O)N(C(C)=O)C1c1cccc([N+](=O)[O-])c1 (stereo unspecified) | inconclusive: 31.6 µM [inhibitor, partial curve, poor fit]
31 | CC(C)c1nnc(NC(=O)C2CCN(C(=O)Nc3ccccc3)CC2)s1 | inconclusive: 6.31 µM [inhibitor, partial curve, poor fit]
32 | Cc1ccc(C(=O)Nc2cccc3cccnc23)cc1Cl | inconclusive: 5.62 µM [activator, single point]
33 | COc1ccccc1/C=C/C=N/NC(=O)c1cc(-c2ccco2)[nH]n1 | inconclusive: 12.6 µM [inhibitor, partial curve, poor fit]
34 | Cc1onc(-c2ccccc2)c1C(=O)Nc1sccc1C#N | inconclusive: 11.2 µM [inhibitor, partial curve, poor fit]
35 | Cn1nnnc1SCCNCc1cc(Br)ccc1OCc1ccccc1Cl | inconclusive: 31.6 µM [inhibitor, single point]
36 | CCCCc1nnc(NC(=O)c2oc3ccccc3c2C)s1 | inconclusive: 35.5 µM [activator, single point]
37 | Cc1c(C(=O)N2CCOCC2)sc2ncn(CC(=O)N3CCC(C)CC3)c(=O)c12 | inactive
38 | COc1ccccc1N1CCN(CCN(C(=O)C2CCCCC2)c2ccccn2)CC1 | inconclusive: 35.5 µM [inhibitor, single point]
39 | COc1cc2c(cc1OC)C(C)N(C(=O)c1cc3n(n1)C(C(F)(F)F)CC(c1ccco1)N3)CC2 (stereo unspecified) | inconclusive: 35.5 µM [inhibitor, single point]
40 | CCC(CC)C1C(C#N)=C(N)SC(N)=C1C#N | inconclusive: 6.51 µM [activator, single point]
41 | CCOC(=O)c1c(C)c(C(=O)NCC2CCCO2)c(C)n1C (stereo unspecified) | inactive
42 | CCOC(=O)C1=C(C)OC(N)=C(C#N)C1c1ccc(O)c(OC)c1 (stereo unspecified) | inactive
43 | Cc1ccc(OCCCCn2ccnc2)c(Cl)c1 | inactive
44 | CCn1c(SCC(=O)N2CCCCC2C)nc2c1c(=O)n(C)c(=O)n2C (stereo unspecified) | inconclusive: 3.98 µM [activator, single point]
45 | COc1ccc(N2CCOCC2)c(NC(=O)c2ccco2)c1 | inconclusive: 35.5 µM [activator, single point]
46 | CCOc1ccccc1C(=O)NC1(C(F)(F)F)C(=O)Nc2c1c(=O)[nH]c(=O)n2-c1ccc(F)cc1 (stereo unspecified) | inconclusive: 5.01 µM [activator, single point]
47 | CSc1ccccc1OCc1cc(C(=O)NC(C)Cn2cncn2)no1 (stereo unspecified) | inactive
48 | COc1ccc(-c2sc(Nc3ccc(F)c(F)c3F)nc2CCC(=O)NN)cc1 | inconclusive: 31.6 µM [inhibitor, single point]

Row | Structure (SMILES) | Potency
49 | COc1ccccc1CNc1ccc(N2CCOCC2)c(C(=O)O)c1 | inactive
50 | CCOC(=O)C1=C(C)N(C)C(C)=C(C(=O)OCC)C1c1cccnc1 | inconclusive: 7.94 µM [inhibitor, partial curve, poor fit]
51 | O=C(NC1CCCC1)C(c1ccncc1)N(C(=O)c1csnn1)c1ccccc1 (stereo unspecified) | inconclusive: 2.24 µM [inhibitor, partial curve, poor fit]
52 | COCCn1c(=NC(=O)c2ccc3c(c2)OCCO3)sc2cc(S(N)(=O)=O)ccc21 | inconclusive: 29.1 µM [inhibitor, single point]
53 | Oc1ccc(C2C(c3ccccc3)=NN=C(c3ccc(Cl)cc3)N2O)c(O)c1 (stereo unspecified) | inactive
54 | Cc1cc(C)n(-c2ccc(C(=O)OC(C)C)cc2)n1 | inactive
55 | Cn1c(N)c(C(=O)Nc2cccc(Cl)c2)c(=O)n(C)c1=O | inconclusive: 25.1 µM [activator, single point]
56 | CCOC(=O)c1cnn(-c2cc(Oc3cccc(C)c3)ncn2)c1N | inconclusive: 35.5 µM [inhibitor, single point]
57 | CC(C)(C)c1ccc(S(=O)(=O)NCCc2ccncc2)cc1 | inconclusive: 0.316 µM [inhibitor, full curve, poor fit]
58 | Cc1ccc([C@H]2C[C@H](O)[C@@H](n3cc(C4CC4)nn3)CN2Cc2cccs2)cc1 | inconclusive: 4.45 µM [inhibitor, full curve, poor fit]
59 | CN(C)CCCNC(=S)Nc1ccc(Oc2ccccc2)cc1 | inconclusive: 6.31 µM [activator, single point]
60 | COc1ccccc1NC(=O)COC(=O)c1cc(C)oc1C | inactive
61 | CCOC(=O)c1c(C)[nH]c(C)c1C(=O)COC(=O)c1cc(OC)cc(OC)c1 | inconclusive: 6.31 µM [inhibitor, single point]
62 | O=C(NC1CCCCC1)c1ccc(COc2ccccc2)o1 | inactive
63 | Cc1cccc(CCNC(=O)c2cc3c(=O)n(C)c4ccccc4c3n2C)c1 | inactive
64 | CCCCc1ccc(C2C3=C(CC(C)(C)CC3=O)NC3=C2C(=O)c2ccccc23)cc1 (stereo unspecified) | inconclusive: 11.2 µM [inhibitor, partial curve, poor fit]
65 | COc1ccc(NC(=S)N2CCc3ccccc3C2)cc1 | inconclusive: 5.01 µM [activator, full curve, poor fit]
66 | CCc1cc2c(cc3c(=O)n(CCCC(=O)NCc4cccc(Cl)c4)ncn32)s1 | inactive
67 | COCCN1C(=O)C2=C(C1=O)C1N(C)c3ccccc3[C@@]13C[C@@H](CO)N(S(=O)(=O)c1ccc(OC)cc1)C3=N2 (stereo partly specified) | inactive
68 | CN(CCC1CCOCC1)C(=O)CC1C(=O)NCCN1Cc1ccoc1 (stereo unspecified) | inactive
69 | CCOc1ccccc1NS(=O)(=O)c1ccc2c(c1)oc(=O)n2C | inactive
70 | CCOc1ccc(NC(=O)Cn2nnc3c(cnn3-c3ccc(F)cc3)c2=O)cc1 | inactive
71 | CCN1CCN(c2ccc(S(=O)(=O)N3CCCCC3)cc2NC(=O)c2ccc([N+](=O)[O-])s2)CC1 | inconclusive: 8.91 µM [inhibitor, partial curve, poor fit]

By substructure: those above containing a furan ring, fused or not (eight)
Row | Structure (SMILES) | Potency
9 | O=C(NCC(c1ccco1)N1CCCC1)c1ccccc1Sc1ccc(C(F)(F)F)cc1[N+](=O)[O-] (stereo unspecified) | inconclusive: 35.5 µM [inhibitor, single point]
33 | COc1ccccc1/C=C/C=N/NC(=O)c1cc(-c2ccco2)[nH]n1 | inconclusive: 12.6 µM [inhibitor, partial curve, poor fit]
36 | CCCCc1nnc(NC(=O)c2oc3ccccc3c2C)s1 | inconclusive: 35.5 µM [activator, single point]
39 | COc1cc2c(cc1OC)C(C)N(C(=O)c1cc3n(n1)C(C(F)(F)F)CC(c1ccco1)N3)CC2 (stereo unspecified) | inconclusive: 35.5 µM [inhibitor, single point]
45 | COc1ccc(N2CCOCC2)c(NC(=O)c2ccco2)c1 | inconclusive: 35.5 µM [activator, single point]
60 | COc1ccccc1NC(=O)COC(=O)c1cc(C)oc1C | inactive
62 | O=C(NC1CCCCC1)c1ccc(COc2ccccc2)o1 | inactive
68 | CN(CCC1CCOCC1)C(=O)CC1C(=O)NCCN1Cc1ccoc1 (stereo unspecified) | inactive

Two entries drawn at random from those above, as already listed:
Row | Structure (SMILES) | Potency
63 | Cc1cccc(CCNC(=O)c2cc3c(=O)n(C)c4ccccc4c3n2C)c1 | inactive
69 | CCOc1ccccc1NS(=O)(=O)c1ccc2c(c1)oc(=O)n2C | inactive
